B1: unnamed (peptide)
chain: HDRGRFFTILGLFCAGQGVFWASMAVAAVSRPPVPA
B2: unnamed (peptide)
chain: KYEGRSYEEKKQFLKDYFHKKPYPSKKEIELLSSLF
B3: unnamed (peptide)
chain: YVGIYILIAVGAVMMFVGFLGCYGAIQESQCLLGTF
B4: unnamed (peptide)
chain: PPLLFAPSVAAFCGFLPPPPWLFEAFCPRRRGFLLP
B5: unnamed (peptide)
chain: SWLVSFLIIFPALMLLLKLHYCRSNIIDHFTCDYFP
B6: unnamed (peptide)
chain: FWQVLLTGLISFSTASIIIGYVVIKFNKDSWDLQSC
B7: unnamed (peptide)
chain: IKEPGGYVSNLRKICSPEAGLAEYLFDKLTLGGRVK
B8: unnamed (peptide)
chain: NYWLEIFDNFAASLNLLMLAFLEVVGVVYVYGMKRS
B9: unnamed (peptide)
chain: LCVVLYVASSLFLIVMYFFFRVRSRRWKVKHHHPAV
B10: unnamed (peptide)
chain: EAIATFGGAVAAFAVGYVKVNWDLLGELALVVFSVA
B11: unnamed (peptide)
chain: PPPEFYPGPPMMDGAMGYVQPPPPPYPGPMEPPVSG
B12: unnamed (peptide)
chain: RCLGKSKGRTHPRIDPDVIHRLRKFYKPFNLMFYQM
B13: unnamed (peptide)
chain: LVLLSRFDRLLFQSYLFILGIYTITLCSLWALWGGE
B14: unnamed (peptide)
chain: SLEMLDAAKNKMRVKISYLMIALTVVGCIFMVIEGK
B15: unnamed (peptide)
chain: ELSVTQEHIFSKAFFYFVCLDILLYSGFVYRTFEEC
B16: unnamed (peptide)
chain: VAAAVPALLALILIFMETQITALIVSQKARRLLKGS
B17: unnamed (peptide)
chain: KTISFNNCIVQLFFFILLGVTEFYLLAAMSYDRYVA
B18: unnamed (peptide)
chain: QGFFRNKILVIAIVFQVCIGCFLCYCPGMPNIFNFM
B19: unnamed (peptide)
chain: KPHTSLSFLSASLCHFILISCLYVSAYLQSCKHIRR
B20: unnamed (peptide)
chain: LYPNIMTGHLYAKLVILCWVCGFLWFLIPIVLISQM
B21: unnamed (peptide)
chain: WGFILGFVLGAVSPAVVVPSMLLLQGGGYGVEKGVP
B22: unnamed (peptide)
chain: RGASSISQPSISLGHKTSYSPVTHKVNAAKASRRLL
B23: unnamed (peptide)
chain: RNIQAGNYTAHQINIGYYLTLLFLYGVALTERGKKE
B24: unnamed (peptide)
chain: RVCENCMEMDVMSVATIVIVDICITGGLLLLVYYWS
B25: unnamed (peptide)
chain: MAAALQVLPRLARAPLHPLLWRGSVARLASSMALAE
B26: unnamed (peptide)
chain: RIAYILPANESFGPLQISLGRTVKDIFKFMVLFIMV
B27: unnamed (peptide)
chain: FLVSGLFSIISSIPFFFLPQTPNRPQKERKASLSLH
B28: unnamed (peptide)
chain: TQDKSIGRPCRSLLSADWLRLGKRQKRPASRAGAAR

In the supplement of paper PMC11237882 one finds enrichment score data, which are given here for 28 molecules.

The list shows a part of the results. Values are worked out from sequencing counts and are noisy.

This assay concerns the target T1, Homer1 EVH1 domain.
T1 chain: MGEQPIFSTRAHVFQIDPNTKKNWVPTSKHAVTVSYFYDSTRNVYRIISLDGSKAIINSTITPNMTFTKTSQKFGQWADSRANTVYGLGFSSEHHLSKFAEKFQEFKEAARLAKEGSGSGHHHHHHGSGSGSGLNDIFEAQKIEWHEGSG
The experiment in a line: enrichment score (AUC of log2 frequency ratio across FACS sorting rounds) (log2 AUC); higher = stronger enrichment for Homer1 EVH1 binding.
For the molecule B1, the enrichment score was 3.07.

With B2, the enrichment score was determined as 0.252.

B3: the enrichment score came to 2.41.

Take B4: the enrichment score was 3.67.

B5: the enrichment score was 1.15.

On to B6, for which the enrichment score is -0.793.

As for B7, the enrichment score stood at 1.42.

Turning to B8, the enrichment score amounted to 2.64.

For the molecule B9, the enrichment score worked out at 3.09.

Turning to B10, the enrichment score is -2.17.

Regarding B11, the enrichment score was 6.2.

For the molecule B12, the enrichment score was -0.143.

Take B13: the enrichment score turned out to be 2.43.

For the molecule B14, the enrichment score turned out to be 3.7.

Take B15: the enrichment score is -0.162.

Turning to B16, the enrichment score was determined as 2.54.

For B17, the enrichment score was 1.9.

Turning to B18, the enrichment score was -2.02.

In the case of B19, the enrichment score is 2.03.

With B20, the enrichment score stood at 3.46.

For B21, the enrichment score was 0.443.

Turning to B22, the enrichment score worked out at 1.

In the case of B23, the enrichment score turned out to be 2.12.

As for B24, the enrichment score was -2.77.

Regarding B25, the enrichment score worked out at 1.82.

Regarding B26, the enrichment score was -0.148.

For B27, the enrichment score was -0.722.

With B28, the enrichment score was determined as 0.654.
